Test results taken from the supplement of paper PMC11348887.
Where a name gives a salt, the structure may show the parent alone. This is one part of the list. Most entries show no effect beyond the scatter of the controls.

Assays:
Settings in all cases: 5 µM; treatment: days 7-14 after plating, readout day 21
[1] = tested on: hPSC-derived cortical neurons (WA09); test: nucleus area z-score vs screen plate; higher = larger nuclei (more mature)
[2] = tested on: hPSC-derived cortical neurons (WA09); test: total neurite length per nucleus (MAP2) z-score; higher = more neurite growth
[3] = tested on: hPSC-derived cortical neurons (WA09); test: nucleus roundness z-score vs screen plate; higher = rounder nuclei (more mature)
[4] = tested on: hPSC-derived cortical neurons (WA09); test: KCl-induced FOS+/EGR-1+ double-positive nuclei fraction z-score (KCl minus unstimulated); higher = stronger activity-induced IEG response

Row | SMILES | nucleus area z-score [1] | total neurite length per nucleus (z-score) [2] | nucleus roundness z-score [3] | KCl-induced FOS+/EGR-1+ double-positive nuclei fraction z-score [4]
1 | CC(C)[C@H](N)C(=O)OCCOCn1cnc2c(=O)nc(N)[nH]c21 [Valaciclovir HCl] | 1.33 | -0.445 | -0.226 | 1.35
2 | C=C1C(=O)[C@]23[C@H](O)[C@H]1CC[C@H]2[C@@]12CO[C@]3(O)[C@@H](O)[C@@H]1C(C)(C)CC[C@@H]2O [Oridonin] | 0.0409 | -0.618 | -0.999 | -0.974
3 | O=C(O)CCCN1CCC(O[C@@H](c2ccc(Cl)cc2)c2ccccn2)CC1 [Bepotastine Besilate] | 0.317 | 0.0829 | 0.533 | 0.27
4 | CN1CCN(C2=Nc3cc(Cl)ccc3Nc3ccccc32)CC1 [Clozapine] | 0.798 | 0.577 | 1.06 | 1.23
5 | c1ccc2c(CC3=NCCN3)cccc2c1 [Naphazoline HCl] | -0.00916 | 0.501 | 0.347 | 0.52
6 | O=S(=O)(O)Oc1ccc(C(c2ccc(OS(=O)(=O)O)cc2)c2ccccn2)cc1 [Sodium Picosulfate] | 0.123 | -0.17 | 0.801 | -0.422
7 | Cc1cc(C#N)cc(C)c1Oc1nc(Nc2ccc(C#N)cc2)nc(N)c1Br [Etravirine (TMC125)] | -0.775 | 0.163 | -0.729 | -0.361
8 | COc1cccc(Nc2c(C(N)=O)cnc3c(C)cc(S(=O)(=O)c4cccc(C(=O)N(C)C)c4)cc23)c1 | -2.2 | 0.652 | 0.114 | 0.931
9 | CCOc1cc(N2CCC(O)CC2)ccc1Nc1ncc2c(n1)N(C)c1ccccc1C(=O)N2C | -0.036 | -1.83 | -2.01 | -0.66
10 | CC[C@@H]([C@H](C)O)n1ncn(-c2ccc(N3CCN(c4ccc(OC[C@@H]5CO[C@@](Cn6cncn6)(c6ccc(F)cc6F)C5)cc4)CC3)cc2)c1=O [Posaconazole] | 0.0596 | 0.249 | 0.884 | -0.582
11 | CC(=O)Nc1ncc([N+](=O)[O-])s1 [Nithiamide] | 0.145 | 0.0629 | -0.257 | 0.238
12 | COc1cc2c(cc1O)CC[C@@H]1[C@@H]2CC[C@]2(C)[C@@H](O)CC[C@@H]12 [2-Methoxyestradiol (2-MeOE2)] | -2.93 | -0.21 | -0.801 | -0.185
13 | O=c1n(CCCN2CCN(c3cccc(Cl)c3)CC2)nc2ccccn12 [Trazodone HCl] | -0.256 | 0.0769 | -0.237 | 1.02
14 | N#Cc1ccc(-c2csc(NN=C3CCCC3)n2)cc1 [Remodelin] | 0.0691 | 0.379 | 0.257 | -0.501
15 | O=C(NC1CC1)c1cc(-c2cccs2)on1 [Isoxazole 9 (ISX-9)] | 0.265 | 2.12 | 1.69 | 3
16 | CCC[C@H](NC(=O)/C(C#N)=C/c1cccc(Br)n1)c1ccccc1 [Degrasyn (WP1130)] | 0.973 | -0.873 | -0.258 | -0.322
17 | O=c1c(-n2ccnn2)c[nH]n1-c1cc(N2CCOCC2)ncn1 [Molidustat (BAY 85-3934)] | 0.0347 | 0.212 | -0.66 | 1.18

In the list so far, these contain an aryl methoxy group.
Row | SMILES | nucleus area z-score [1] | total neurite length per nucleus (z-score) [2] | nucleus roundness z-score [3] | KCl-induced FOS+/EGR-1+ double-positive nuclei fraction z-score [4]
8 | COc1cccc(Nc2c(C(N)=O)cnc3c(C)cc(S(=O)(=O)c4cccc(C(=O)N(C)C)c4)cc23)c1 | -2.2 | 0.652 | 0.114 | 0.931
12 | COc1cc2c(cc1O)CC[C@@H]1[C@@H]2CC[C@]2(C)[C@@H](O)CC[C@@H]12 [2-Methoxyestradiol (2-MeOE2)] | -2.93 | -0.21 | -0.801 | -0.185

Later entries

Row | SMILES | nucleus area z-score [1] | total neurite length per nucleus (z-score) [2] | nucleus roundness z-score [3] | KCl-induced FOS+/EGR-1+ double-positive nuclei fraction z-score [4]
18 | Nc1nnc(-c2cccc(Cl)c2Cl)c(N)n1 [Lamotrigine] | 0.716 | -0.557 | 0.363 | 0.378
19 | CN(C)CCNC(=O)c1cccn2c(=O)c3cc4ccccc4cc3nc12 | -3.69 | -0.213 | -0.302 | 5.62
20 | Cc1nc(N(C)C(=O)Cc2ccc(-c3ccccn3)cc2)sc1S(N)(=O)=O [Pritelivir (BAY 57-1293)] | 0.41 | 1.52 | 0.932 | 0.801
21 | C[C@]12CC[C@@H]3c4ccc(O)cc4CC[C@H]3[C@@H]1CC[C@@H]2OC(=O)CCC1CCCC1 [Estradiol Cypionate] | 0.199 | -0.0944 | -0.551 | -0.631
22 | Clc1ccc(COC(Cn2ccnc2)c2ccc(Cl)cc2Cl)c(Cl)c1 (stereo unspecified) [Miconazole Nitrate] | -1.56 | 0.0296 | 0.298 | 1.17
23 | COc1cc2nc(N(C)CCCNC(=O)C3CCCO3)nc(N)c2cc1OC (stereo unspecified) [Alfuzosin HCl] | -0.627 | -0.844 | -1.24 | -0.603
24 | Cc1cc2c(cc1S(N)(=O)=O)S(=O)(=O)CCC2 [Meticrane] | -0.4 | -0.098 | 0.125 | -0.495
25 | CN1CCC(Nc2nc(Nc3ccc(Oc4ccccc4)cc3)c3c(=O)[nH]cc(Br)c3n2)CC1 | -13 | -4.32 | -3.69 | 1.78
26 | CC(ONC(=O)c1cc(C(F)(F)F)cc(C(F)(F)F)c1)C(=O)Nc1ccc(Cl)cc1 (stereo unspecified) | 0.196 | 0.927 | 0.66 | 0.544
27 | CC[C@H]1OC(=O)[C@H](C)[C@@H](O[C@H]2C[C@@](C)(OC)[C@@H](O)[C@H](C)O2)[C@H](C)[C@@H](O[C@@H]2O[C@H](C)C[C@H](N(C)C)[C@H]2O)[C@](C)(O)C[C@@H](C)[C@@H]2N[C@@H](COCCOC)O[C@H]([C@H]2C)[C@]1(C)O [Dirithromycin] | 1.02 | -1.25 | -1.11 | 0.207
28 | Cc1ccc2c(=O)c3cccc(CC(=O)O)c3oc2c1C [DMXAA (Vadimezan)] | 0.112 | 0.284 | 0.0274 | 0.195
29 | Nc1cc(C(Cl)=C(Cl)Cl)c(S(N)(=O)=O)cc1S(N)(=O)=O [Clorsulon] | 1.37 | -1.06 | -1.53 | -0.395
30 | CCCNC(=O)Nc1ccc(Oc2ncnc3cc(OC)c(OC)cc23)cc1Cl | 2.13 | 0.134 | -0.716 | -0.636
31 | N[C@@H](CSCCB(O)O)C(=O)O | 0.692 | 0.569 | 0.692 | 0.738
32 | CC(C)n1c(/C=C/C(O)CC(O)CC(=O)O)c(-c2ccc(F)cc2)c2ccccc21 (stereo unspecified) [Fluvastatin Sodium] | -2.05 | -0.7 | -2.83 | -1.33
33 | NC(=O)c1cnc(N[C@@H]2CCCC[C@@H]2N)nc1Nc1cccc(-n2nccn2)c1 | 0.215 | 0.408 | 0.345 | 0.274
34 | NC(N)=Nc1nc(CSCC/C(N)=N/S(N)(=O)=O)cs1 [Famotidine] | -0.476 | -0.437 | 0.686 | 0.368
